Five targets from the supplement of paper PMC6411743 can be followed below.

The chains behind the UniProt entries cited, without tags or fusion partners. Where a name states a change or a piece, a line headed by the entry shows the natural chain unless it says otherwise.
UniProt Q9NYY8: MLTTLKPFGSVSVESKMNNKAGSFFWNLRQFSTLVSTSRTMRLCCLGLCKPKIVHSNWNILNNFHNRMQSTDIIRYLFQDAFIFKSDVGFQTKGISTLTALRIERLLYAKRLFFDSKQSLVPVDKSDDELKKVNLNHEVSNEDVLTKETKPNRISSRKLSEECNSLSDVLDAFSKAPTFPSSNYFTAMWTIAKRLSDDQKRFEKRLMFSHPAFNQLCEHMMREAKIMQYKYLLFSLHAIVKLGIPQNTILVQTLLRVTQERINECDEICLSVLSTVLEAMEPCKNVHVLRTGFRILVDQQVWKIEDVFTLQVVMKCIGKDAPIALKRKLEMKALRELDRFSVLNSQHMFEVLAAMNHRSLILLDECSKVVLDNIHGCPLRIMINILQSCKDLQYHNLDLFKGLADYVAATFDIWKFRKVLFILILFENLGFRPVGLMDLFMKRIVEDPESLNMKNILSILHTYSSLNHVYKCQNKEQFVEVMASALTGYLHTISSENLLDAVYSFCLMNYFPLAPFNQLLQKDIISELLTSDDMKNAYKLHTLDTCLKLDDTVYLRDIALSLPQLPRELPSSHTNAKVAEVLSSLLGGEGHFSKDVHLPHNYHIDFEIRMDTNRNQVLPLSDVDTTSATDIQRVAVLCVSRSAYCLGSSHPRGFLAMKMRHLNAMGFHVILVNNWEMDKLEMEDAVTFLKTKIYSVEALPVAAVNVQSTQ
UniProt Q9NVX2: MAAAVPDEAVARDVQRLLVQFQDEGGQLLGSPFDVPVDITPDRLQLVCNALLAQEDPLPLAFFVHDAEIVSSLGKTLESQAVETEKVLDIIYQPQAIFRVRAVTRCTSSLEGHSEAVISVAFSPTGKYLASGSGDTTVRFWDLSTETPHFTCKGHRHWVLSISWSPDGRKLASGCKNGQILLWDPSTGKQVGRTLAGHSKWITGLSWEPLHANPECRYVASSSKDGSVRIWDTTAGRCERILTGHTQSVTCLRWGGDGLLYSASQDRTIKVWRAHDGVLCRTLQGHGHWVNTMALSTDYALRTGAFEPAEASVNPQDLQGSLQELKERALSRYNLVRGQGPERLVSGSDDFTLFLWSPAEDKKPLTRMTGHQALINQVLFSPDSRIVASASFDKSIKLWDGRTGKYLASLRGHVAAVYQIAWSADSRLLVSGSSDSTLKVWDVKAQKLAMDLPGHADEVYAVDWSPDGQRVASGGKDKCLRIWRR
UniProt Q9UI12, whole entry: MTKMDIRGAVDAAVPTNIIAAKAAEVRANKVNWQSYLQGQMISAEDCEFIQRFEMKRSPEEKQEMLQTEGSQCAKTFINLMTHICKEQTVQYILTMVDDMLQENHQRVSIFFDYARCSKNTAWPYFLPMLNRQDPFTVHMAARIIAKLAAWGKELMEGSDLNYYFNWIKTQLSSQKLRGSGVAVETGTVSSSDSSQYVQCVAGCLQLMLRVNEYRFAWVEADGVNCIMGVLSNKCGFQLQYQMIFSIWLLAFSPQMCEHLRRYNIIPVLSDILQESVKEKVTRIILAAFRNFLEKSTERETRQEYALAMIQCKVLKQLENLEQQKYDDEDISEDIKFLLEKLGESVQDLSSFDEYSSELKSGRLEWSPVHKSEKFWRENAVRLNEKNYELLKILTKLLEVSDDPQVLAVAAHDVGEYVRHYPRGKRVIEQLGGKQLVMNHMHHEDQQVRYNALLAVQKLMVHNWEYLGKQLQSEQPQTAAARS
UniProt Q9P2R7: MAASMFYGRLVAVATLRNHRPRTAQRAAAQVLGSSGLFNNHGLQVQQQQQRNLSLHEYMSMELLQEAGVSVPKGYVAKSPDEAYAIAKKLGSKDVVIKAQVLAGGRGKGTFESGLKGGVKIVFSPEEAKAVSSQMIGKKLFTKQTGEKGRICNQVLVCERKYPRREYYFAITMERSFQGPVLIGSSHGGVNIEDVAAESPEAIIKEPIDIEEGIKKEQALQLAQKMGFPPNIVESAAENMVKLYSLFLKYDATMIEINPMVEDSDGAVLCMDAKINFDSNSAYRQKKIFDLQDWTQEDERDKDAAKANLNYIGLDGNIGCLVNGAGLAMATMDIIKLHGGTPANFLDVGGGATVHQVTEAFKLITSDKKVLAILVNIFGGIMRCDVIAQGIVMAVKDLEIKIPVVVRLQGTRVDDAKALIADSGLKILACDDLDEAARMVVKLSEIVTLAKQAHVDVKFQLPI
UniProt Q9NW13: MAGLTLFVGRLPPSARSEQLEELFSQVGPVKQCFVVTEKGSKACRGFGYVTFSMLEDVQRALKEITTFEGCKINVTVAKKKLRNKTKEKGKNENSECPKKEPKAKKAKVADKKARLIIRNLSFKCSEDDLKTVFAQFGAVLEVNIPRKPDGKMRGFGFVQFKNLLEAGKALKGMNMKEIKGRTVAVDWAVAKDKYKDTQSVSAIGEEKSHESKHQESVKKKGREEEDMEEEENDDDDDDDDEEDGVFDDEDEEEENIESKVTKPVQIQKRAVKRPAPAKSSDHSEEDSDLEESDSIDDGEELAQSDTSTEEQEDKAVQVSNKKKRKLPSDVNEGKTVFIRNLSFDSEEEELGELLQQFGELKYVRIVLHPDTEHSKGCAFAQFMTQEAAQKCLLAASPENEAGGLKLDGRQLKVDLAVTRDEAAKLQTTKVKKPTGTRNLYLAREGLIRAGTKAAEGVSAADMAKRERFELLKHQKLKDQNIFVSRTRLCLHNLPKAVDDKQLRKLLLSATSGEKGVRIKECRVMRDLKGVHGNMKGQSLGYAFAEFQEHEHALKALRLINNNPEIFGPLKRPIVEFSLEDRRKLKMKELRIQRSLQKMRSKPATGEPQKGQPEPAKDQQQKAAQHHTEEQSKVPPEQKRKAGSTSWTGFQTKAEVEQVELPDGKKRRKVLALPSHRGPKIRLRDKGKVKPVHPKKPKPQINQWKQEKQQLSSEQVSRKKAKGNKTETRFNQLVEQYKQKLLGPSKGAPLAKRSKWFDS

± gives the standard deviation of the averaged measurements. The list shows a part of the results.

Compound in the test: Nc1nc2c(ncn2[C@@H]2O[C@H](COP(=O)(O)OP(=O)(O)OP(=O)(O)O)[C@@H](O)[C@H]2O)c(=O)[nH]1 [guanosine triphosphate]
In words: NP40-soluble protein abundance relative to vehicle (solubility fold change) (ratio); higher = more soluble protein in presence of GTP. On the procedure: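 Solubility proteome profiling in Jurkat crude lysate. Lysate was treated with Mg-GTP (0.1-10 mM) for 10 min at room temperature and 3 min at 37 °C, then solubilised with 0.8% NP40 and benzonase, followed by ultracentrifugation. Proteins were quantified by TMT10 LC-MS/MS; the value is the NP40-soluble abundance relative to the NP40-processed vehicle, from 3 independent experiments.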

Consider FASTKD2 (UniProt Q9NYY8), for which the NP40-soluble protein abundance by setting is: (concentration: 0.1mM) 1.01 ± 0.023; (concentration: 0.5mM) 1.05 ± 0.02; (concentration: 1mM) 0.974 ± 0.022; (concentration: 2mM) 0.959 ± 0.054; (concentration: 4mM) 0.946 ± 0.063; (concentration: 6mM) 0.941 ± 0.017. Moreover, the NP40-soluble protein abundance is, setting by setting: (concentration: 8mM) 0.929 ± 0.022; (concentration: 10mM) 0.916 ± 0.065.
As for UniProt Q9NVX2 and related entries, the NP40-soluble protein abundance is, setting by setting: (concentration: 0.1mM) 1.01 ± 0.043; (concentration: 0.5mM) 1.03 ± 0.066; (concentration: 1mM) 0.9298 ± 0.0041; (concentration: 2mM) 0.934 ± 0.098; (concentration: 4mM) 0.934 ± 0.053; (concentration: 6mM) 0.934 ± 0.036. For the same target, the NP40-soluble protein abundance reads like this: (concentration: 8mM) 0.897 ± 0.033; (concentration: 10mM) 0.87 ± 0.087.
Regarding UniProt Q9UI12 and related entries, the NP40-soluble protein abundance runs as follows: (concentration: 0.1mM) 0.987 ± 0.021; (concentration: 0.5mM) 1.01 ± 0.017; (concentration: 1mM) 0.9996 ± 0.0053; (concentration: 2mM) 0.99 ± 0.033; (concentration: 4mM) 1.03 ± 0.048; (concentration: 6mM) 1 ± 0.036. Besides, the NP40-soluble protein abundance amounted to 1.03 ± 0.064 (concentration: 8mM) and 1.02 ± 0.071 (concentration: 10mM).
Regarding UniProt Q9P2R7 and related entries, the NP40-soluble protein abundance is 0.948 ± 0.063 (concentration: 0.1mM); 0.955 ± 0.055 (concentration: 0.5mM); 0.895 ± 0.048 (concentration: 1mM); 0.874 ± 0.046 (concentration: 2mM); 0.855 ± 0.033 (concentration: 4mM); 0.857 ± 0.039 (concentration: 6mM). The NP40-soluble protein abundance (concentration: 8mM) amounted to 0.847 ± 0.062 and the NP40-soluble protein abundance (concentration: 10mM) amounted to 0.831 ± 0.065.
As for RBM28 (UniProt Q9NW13), the NP40-soluble protein abundance (concentration: 0.1mM) is 0.978 ± 0.049; the NP40-soluble protein abundance (concentration: 0.5mM) came to 1.01 ± 0.058; the NP40-soluble protein abundance (concentration: 1mM) was determined as 1.04 ± 0.062; the NP40-soluble protein abundance (concentration: 2mM) amounted to 1.06 ± 0.061; the NP40-soluble protein abundance (concentration: 4mM) is 1.1 ± 0.068; the NP40-soluble protein abundance (concentration: 6mM) was 1.16 ± 0.059. For the same target, the NP40-soluble protein abundance is 1.21 ± 0.082 (concentration: 8mM) and 1.27 ± 0.11 (concentration: 10mM).
